Values from PubChem BioAssay AID743454 (Peter MacCallum Cancer Centre, 2014).
The deposit covers about 18,000 reagents; below is an unselected part. 450 of all reagents (2.5%) were called active. 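Single biological run; no consistent viability z cut-off exists, so the class columns, not z-scores, define the calls.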

Screen: 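Search for knock-downs that restore vorinostat killing in resistant colon cancer cells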 (primary screen)
Cells: human HCT116-VR colon cancer cells, selected for vorinostat resistance
Knock-down reagent: siRNA pool against human genes, 40 nM siRNA pool
Duration: vorinostat for 24 h, read-out about 72 h after transfection
Conditions: vorinostat at 2.5 µM final
Measured: 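Two measures, CellTiter-Fluor viability and luminescent caspase 3/7 activity, each as fold change against same-plate mock wells, mean of duplicates, then screen-wide robust z-score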
Direction: viability robust z-score: higher = more viable cells than screen typical; caspase robust z-score: higher = more caspase 3/7 activity than screen typical
Active means: 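a knock-down is a hit when classed RV1 or RV2 for lowered viability, or CA1 or CA2 for caspase activation; those lethal without drug were dropped; hits were retested singly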

DKKL1 (GeneID 27120) gave viability hit class no change; caspase hit class no change; viability robust z-score 0.36; caspase robust z-score 0; inactive.
For MFAP3 (GeneID 4238), the entry reads viability hit class no change; caspase hit class no change; viability robust z-score 0.08; caspase robust z-score -0.52; inactive.
With knock-down of TBC1D22A (GeneID 25771) the results were viability hit class no change; caspase hit class no change; viability robust z-score 1.6; caspase robust z-score -0.16; inactive.
With knock-down of PIGW (GeneID 284098), the record shows viability hit class no change; caspase hit class no change; viability robust z-score 0.88; caspase robust z-score 0; inactive.

An excerpt from above, reduced to “viability robust z-score”:
MFAP3 (GeneID 4238): 0.08
TBC1D22A (GeneID 25771): 1.6

The results go on:
For GABRB3 (GeneID 2562) the deposit lists viability hit class no change; caspase hit class no change; viability robust z-score 0.28; caspase robust z-score 5.09; inactive.
Knock-down of CYP4F11 (GeneID 57834) resulted in: viability hit class no change; caspase hit class no change; viability robust z-score 0.53; caspase robust z-score -0.4; inactive.
WFDC10A (GeneID 140832) showed viability hit class no change; caspase hit class no change; viability robust z-score -0.66; caspase robust z-score 1.26; inactive.
OTUB1 (GeneID 55611) showed viability hit class no change; caspase hit class no change; viability robust z-score -0.97; caspase robust z-score 1.56; inactive.
With knock-down of KLF17 (GeneID 128209) the results were viability hit class no change; caspase hit class no change; viability robust z-score -0.42; caspase robust z-score 0.38; inactive.
Knock-down of AGBL4 (GeneID 84871) resulted in: viability hit class no change; caspase hit class no change; viability robust z-score 0.86; caspase robust z-score -0.38; inactive.
With knock-down of SMAD5 (GeneID 4090), the record shows viability hit class no change; caspase hit class no change; viability robust z-score 1.94; caspase robust z-score -0.5; inactive.
Knock-down of TMEM51 (GeneID 55092) came out at: viability hit class no change; caspase hit class no change; viability robust z-score -2.72; caspase robust z-score 5.1; inactive.
RITA1 (GeneID 84934) showed viability hit class no change; caspase hit class no change; viability robust z-score 1.68; caspase robust z-score -0.72; inactive.
FUCA2 (GeneID 2519) showed viability hit class no change; caspase hit class no change; viability robust z-score -1.48; caspase robust z-score 3.81; inactive.
